These are yes or no findings as the source states them, for the method shown. Binding seen in cells or lysates may run through a third protein. Here binding means that the protein was enriched with, or labelled near, the bait; the list need not be complete.

The chains behind the UniProt entries cited, without tags or fusion partners. Residues count along the entry.
UniProt P02751, residues 32-2477: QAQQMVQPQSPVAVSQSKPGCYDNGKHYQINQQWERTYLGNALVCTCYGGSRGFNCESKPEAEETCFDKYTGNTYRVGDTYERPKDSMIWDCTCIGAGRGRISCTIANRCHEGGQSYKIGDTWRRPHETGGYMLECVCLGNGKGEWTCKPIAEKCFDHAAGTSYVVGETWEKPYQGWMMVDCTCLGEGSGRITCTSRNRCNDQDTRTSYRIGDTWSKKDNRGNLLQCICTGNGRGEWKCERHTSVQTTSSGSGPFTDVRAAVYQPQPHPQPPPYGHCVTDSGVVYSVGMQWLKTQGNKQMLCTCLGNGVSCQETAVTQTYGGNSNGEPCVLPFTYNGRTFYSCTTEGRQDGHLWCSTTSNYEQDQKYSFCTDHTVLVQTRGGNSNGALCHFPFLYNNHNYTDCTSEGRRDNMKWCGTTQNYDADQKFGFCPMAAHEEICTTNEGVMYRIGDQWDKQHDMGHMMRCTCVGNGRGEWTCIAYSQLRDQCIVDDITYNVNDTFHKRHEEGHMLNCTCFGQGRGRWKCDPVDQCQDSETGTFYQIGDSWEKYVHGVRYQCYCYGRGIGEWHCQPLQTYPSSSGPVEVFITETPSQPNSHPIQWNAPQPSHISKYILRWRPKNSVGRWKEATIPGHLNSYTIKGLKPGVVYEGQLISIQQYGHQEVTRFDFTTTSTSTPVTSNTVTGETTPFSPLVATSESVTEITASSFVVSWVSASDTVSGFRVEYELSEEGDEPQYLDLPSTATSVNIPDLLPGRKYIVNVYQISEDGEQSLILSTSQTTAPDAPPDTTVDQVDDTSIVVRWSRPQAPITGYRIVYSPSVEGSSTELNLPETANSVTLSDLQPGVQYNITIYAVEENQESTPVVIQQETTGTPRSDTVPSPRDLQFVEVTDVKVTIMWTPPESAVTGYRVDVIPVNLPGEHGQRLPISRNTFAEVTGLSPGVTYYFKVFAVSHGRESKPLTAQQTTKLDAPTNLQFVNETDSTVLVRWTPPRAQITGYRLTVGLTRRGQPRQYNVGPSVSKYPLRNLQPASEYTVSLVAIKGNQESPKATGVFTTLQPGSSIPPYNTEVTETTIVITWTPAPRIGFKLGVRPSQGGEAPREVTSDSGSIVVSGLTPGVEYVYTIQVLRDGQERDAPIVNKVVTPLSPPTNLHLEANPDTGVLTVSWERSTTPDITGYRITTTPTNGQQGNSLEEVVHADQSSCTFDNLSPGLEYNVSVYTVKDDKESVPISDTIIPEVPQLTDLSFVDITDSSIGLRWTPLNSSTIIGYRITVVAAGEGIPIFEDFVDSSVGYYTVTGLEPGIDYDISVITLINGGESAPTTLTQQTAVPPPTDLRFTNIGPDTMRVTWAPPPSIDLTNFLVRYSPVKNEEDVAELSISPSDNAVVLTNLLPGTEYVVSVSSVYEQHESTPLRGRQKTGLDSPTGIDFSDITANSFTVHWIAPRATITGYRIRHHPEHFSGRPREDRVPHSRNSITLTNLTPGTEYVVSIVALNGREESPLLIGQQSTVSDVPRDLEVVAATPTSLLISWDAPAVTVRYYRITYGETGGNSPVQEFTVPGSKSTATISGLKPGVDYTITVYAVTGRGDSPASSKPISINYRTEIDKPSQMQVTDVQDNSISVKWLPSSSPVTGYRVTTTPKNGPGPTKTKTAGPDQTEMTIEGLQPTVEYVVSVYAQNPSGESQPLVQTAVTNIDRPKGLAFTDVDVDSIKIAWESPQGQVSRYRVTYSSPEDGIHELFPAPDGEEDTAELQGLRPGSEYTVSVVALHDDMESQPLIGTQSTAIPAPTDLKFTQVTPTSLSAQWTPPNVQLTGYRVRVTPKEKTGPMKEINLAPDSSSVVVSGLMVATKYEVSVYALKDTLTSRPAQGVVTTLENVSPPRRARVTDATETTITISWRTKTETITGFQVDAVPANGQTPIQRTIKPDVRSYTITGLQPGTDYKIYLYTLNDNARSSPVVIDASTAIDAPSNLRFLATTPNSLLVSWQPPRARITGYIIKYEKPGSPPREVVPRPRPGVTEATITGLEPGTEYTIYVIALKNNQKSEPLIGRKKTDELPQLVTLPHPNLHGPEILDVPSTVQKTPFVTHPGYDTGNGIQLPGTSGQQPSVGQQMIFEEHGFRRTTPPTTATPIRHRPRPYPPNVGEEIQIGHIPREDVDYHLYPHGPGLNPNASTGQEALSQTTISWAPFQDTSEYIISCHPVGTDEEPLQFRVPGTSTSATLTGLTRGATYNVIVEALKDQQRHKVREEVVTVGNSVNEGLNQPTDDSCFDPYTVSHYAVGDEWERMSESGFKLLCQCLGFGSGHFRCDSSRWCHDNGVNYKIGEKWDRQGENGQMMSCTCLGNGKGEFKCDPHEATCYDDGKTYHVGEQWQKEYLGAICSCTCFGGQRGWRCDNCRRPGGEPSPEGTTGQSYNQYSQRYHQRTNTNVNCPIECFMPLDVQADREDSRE

The experiment addresses T1, dysadherin (human (endogenous in SW480)) (UniProt Q96DB9).
T1 sequence: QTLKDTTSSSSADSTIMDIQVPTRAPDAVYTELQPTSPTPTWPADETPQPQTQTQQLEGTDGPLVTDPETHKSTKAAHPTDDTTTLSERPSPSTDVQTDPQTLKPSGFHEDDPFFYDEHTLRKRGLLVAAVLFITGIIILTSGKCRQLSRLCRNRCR
As to the kind of experiment: affinity purification with mass spectrometry; co-IP with the monoclonal anti-dysadherin antibody M53 from whole-protein lysates of SW480 cells, followed by LC-MS.

Regarding “fibronectin (from UniProt P02751 32-2477)”, the binding result is given as “binds”.

These data come from paper PMC9169357.
